Results: PubChem BioAssay AID504847 (National Center for Advancing Translational Sciences (NCATS), 2011)
Where “and” joins values, the source holds several entries; their conditions need not be identical. Equal values may be shown once. In all, about 400,000 compounds went through this assay and about 3,700 (0.93%) were called active. The inconclusive results got no clear call from the source; some entries with a clear call stand among them for comparison. Calls come from the whole dose curve; as a rule, active = well fitted inhibition curve with a large enough effect; inconclusive = small, poorly fitted or top-dose-only effect, or another doubt; inactive = no such curve, though single readings can be large or run the other way. Where the call is inconclusive, the potency comes from a doubtful curve fit.

The chains behind the UniProt entries cited, without tags or fusion partners. Where a name states a change or a piece, a line headed by the entry shows the natural chain unless it says otherwise.
UniProt P11473: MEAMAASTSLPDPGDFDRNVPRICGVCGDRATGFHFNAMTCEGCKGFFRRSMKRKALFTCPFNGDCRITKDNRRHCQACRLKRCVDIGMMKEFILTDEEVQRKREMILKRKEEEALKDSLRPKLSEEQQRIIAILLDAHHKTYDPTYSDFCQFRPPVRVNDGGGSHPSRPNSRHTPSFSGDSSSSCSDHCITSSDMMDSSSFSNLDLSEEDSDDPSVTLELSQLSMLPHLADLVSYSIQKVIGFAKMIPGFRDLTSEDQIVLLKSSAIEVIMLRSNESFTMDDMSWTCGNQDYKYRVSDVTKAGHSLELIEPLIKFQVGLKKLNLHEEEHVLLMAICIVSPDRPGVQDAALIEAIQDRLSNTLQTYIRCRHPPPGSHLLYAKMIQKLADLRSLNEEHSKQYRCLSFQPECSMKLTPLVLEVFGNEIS

molecular target: Vitamin D3 receptor (Homo sapiens) (UniProt P11473); test: Inhibitors of the vitamin D receptor (VDR): qHTS; settings: VDR-SRC2-3 peptide fluorescence polarization, 2 h; max response, negative = inhibition: hits give low values
In short: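 Fluorescence polarization assay measuring small-molecule disruption of VDR binding to the coregulator peptide SRC2-3. Compounds were pin-transferred (23 nl) into the reagent mix and incubated 2 h at room temperature before reading.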
% is set by controls: 0 for no effect and ±100 for the full control effect; potency is the fitted concentration of half-maximal effect.

| SMILES | Potency | max response, negative = inhibition |
| --- | --- | --- |
| O=C(OCC(=O)N(C1CCCCC1)C1CCCCC1)c1ccccc1O | inconclusive: 100 µM [inhibitor, single point] |  |
| COc1ccc(C(=S)Nc2ccc(C)cc2)cc1 | inconclusive: 89.1 µM [inhibitor, single point] |  |
| O=C(N/C(=C\c1cccc([N+](=O)[O-])c1)C(=O)N1CCOCC1)c1cccc(Br)c1 | inconclusive: 70.8 µM [inhibitor, partial curve, poor fit] |  |
| CC(=O)Nc1ccc(NC(=O)COC(=O)CCCc2c[nH]c3ccccc23)cc1 | inconclusive: 79.4 µM [inhibitor, single point] |  |
| Cc1cc2oc(=O)cc(-c3ccccc3)c2c(C)c1-c1ccc(O)cc1 | inconclusive: 10 µM [inhibitor, full curve] |  |
| CCN(CC)CCNC(=O)c1cc(Sc2nnc(C)s2)nc2ccccc12 |  | inactive: 24.3% |
| CC(=O)Nc1ccc(C)c(NC(=S)Nc2ccc(F)cc2)c1 |  | inactive: -4.08% |
| CCC[C@H]1CC(=O)C=C(c2ccc(OC)cc2)ON1C(=O)OC(C)(C)C | inconclusive: 89.1 µM [inhibitor, partial curve, poor fit] |  |
| NC1=NC[C@H](Cc2ccc(O)cc2)N1CCCCC1CCCCC1 |  | inactive: -0.646% |
| O=C1c2ccc(O)c(O)c2C(=O)c2c(O)ccc(O)c21 | inconclusive: 70.8 µM [inhibitor, partial curve] |  |
| O=C(CSc1nnc(-c2cnccn2)n1Cc1ccco1)c1ccc(Cl)cc1 | inconclusive: 79.4 µM [inhibitor, partial curve, poor fit] |  |
| OC[C@H](S)CS | inconclusive: 20 µM [inhibitor, full curve] |  |
| COc1cc(/C=C/c2cc(C(F)(F)F)[nH]c(=O)n2)cc(OC)c1OC | inconclusive: 22.4 µM [inhibitor, full curve, poor fit] |  |
| C=C(C(C)=O)C(O)c1ccc([N+](=O)[O-])cc1 (stereo unspecified) | active: 50.1 µM |  |
| O=C(NCC(c1ccco1)N1CCCC1)c1ccc(Cl)c(S(=O)(=O)N2CCc3ccccc32)c1 (stereo unspecified) | inconclusive: 100 µM [inhibitor, single point] |  |
| O=C1/C(=C/c2ccccn2)COc2ccccc21 | inconclusive: 56.2 µM [inhibitor, partial curve, poor fit] |  |
| CCN(CC(=O)Nc1ccc(Br)cc1F)CC(=O)NC1CCS(=O)(=O)C1 (stereo unspecified) | inconclusive: 89.1 µM [inhibitor, partial curve, poor fit] |  |
| CCCCN(CC)C(=O)c1oc2ccc(S(=O)(=O)N3CCCC3)cc2c1C | inconclusive: 20 µM [inhibitor, partial curve, poor fit] |  |
| Cc1ccc(NC(=O)C(=O)NCc2ccco2)c(C)c1 | inconclusive: 89.1 µM [inhibitor, single point] |  |
| CCN(CC)S(=O)(=O)c1ccc(N2CCCC2)c(NC(=O)CC(C)(C)C)c1 |  | inactive: -3.69% |
| S=c1nc[nH]c2c1ncn2-c1ccc(Cl)cc1 | inconclusive: 89.1 µM [inhibitor, single point] |  |
| COc1ccc(OC)c(NC(=O)CSc2c3c(nc4ccccc24)CCCC3)c1 | inconclusive: 39.8 µM [inhibitor, partial curve, poor fit] |  |

Three entries already listed, arranged by SMILES length, low to high:

| SMILES | Potency | max response, negative = inhibition |
| --- | --- | --- |
| S=c1nc[nH]c2c1ncn2-c1ccc(Cl)cc1 | inconclusive: 89.1 µM [inhibitor, single point] |  |
| Cc1cc2oc(=O)cc(-c3ccccc3)c2c(C)c1-c1ccc(O)cc1 | inconclusive: 10 µM [inhibitor, full curve] |  |
| CCN(CC)S(=O)(=O)c1ccc(N2CCCC2)c(NC(=O)CC(C)(C)C)c1 |  | inactive: -3.69% |

Following part

| SMILES | Potency | max response, negative = inhibition |
| --- | --- | --- |
| CCOC(=O)C(=NC1CCS(=O)(=O)C1)NNc1cc(Cl)ccc1Cl (stereo unspecified) | inconclusive: 2.51 µM [inhibitor, partial curve, poor fit] |  |
| Cc1ccc(N2CC(NC(=O)C(=O)c3c(C)[nH]c4ccccc34)CC2=O)cc1C (stereo unspecified) |  | inactive: -0.605% |
| CC1(C)CC(=O)C2=C(C1)Nc1cc3c(cc1C2c1ccc(F)cc1)OCO3 (stereo unspecified) | inconclusive: 100 µM [inhibitor, single point] |  |
| Cc1cc(=O)oc2cc(OCC(O)CN3CCc4ccccc4C3)ccc12 (stereo unspecified) | inconclusive: 89.1 µM [inhibitor, single point] |  |
| Cc1cccc(NC(=S)NNC(=O)c2ccco2)c1 |  | inactive: 1.25% |
| Cc1ccc(N=Nc2c(C)[nH]n(-c3ccccc3)c2=O)c(C)c1 | inconclusive: 89.1 µM [inhibitor, single point] |  |
| N#CC1=C(N)NC(=S)C(C(N)=O)C1c1ccc([N+](=O)[O-])cc1 (stereo unspecified) | active: 79.4 µM |  |
| Cc1cccc(C)c1NC(=O)NC1(C(=O)NCCN2CCOCC2)CCCCC1 | inconclusive: 89.1 µM [inhibitor, single point] |  |
| CCc1ccc2c(c1)N(C[C@H](C)CN(C)C)c1ccccc1S2 |  | inactive: -6.84% |
| O=C(NC1CC(=O)N(c2cccc(F)c2)C1)C1CC1 (stereo unspecified) |  | inactive: 8.94% |
| Cn1nc2c3cc(F)ccc3n(Cc3ccc(F)cc3)cc-2c1=O |  | inactive: 2.07% |
| O=C(O)c1cc([N+](=O)[O-])c(NCCC2=CCCCC2)c([N+](=O)[O-])c1 | inconclusive: 100 µM [inhibitor, partial curve, poor fit] |  |
| CCOC(=O)c1oc2nc(C)c3c(c2c1N)CC(C)(C)OC3 | inconclusive: 28.2 µM [inhibitor, single point] |  |
| Fc1ccc(Nc2nnns2)cc1 | active: 79.4 µM |  |
| O=C(/C=C\c1ccccc1)Oc1cccc2cccnc12 |  | inactive: -6.78% |
| CC(=O)O[C@@]1(C(C)=O)CCC2C3C=C(C)C4=CC(=O)CCC4(C)C3CCC21C (stereo partly specified) | inconclusive: 50.1 µM [inhibitor, partial curve] |  |
| CC(C)(C)c1ccc(-c2nc(C#N)c(NCc3cccnc3)o2)cc1 |  | inactive: 7.76% |
| Cc1ccccc1Nc1nc(N)nc(CSCC(=O)Nc2cccc(Br)c2)n1 | inconclusive: 100 µM [inhibitor, single point] |  |
| COCCN(CCOC)C(=O)c1ccc(CSc2nc3ccccc3s2)cc1 | inconclusive: 100 µM [inhibitor, single point] |  |
| c1csc(CNc2ccnc(-c3ccc4c(c3)OCO4)n2)c1 | inconclusive: 79.4 µM [inhibitor, partial curve, poor fit] |  |
| COc1ccc2c(c1)c(CC(=O)O)c(C)n2C(=O)c1ccc(Cl)cc1 | inconclusive: 89.1 µM [inhibitor, partial curve, poor fit] |  |
| COC(=O)C1SCC2C(=O)N(Cc3ccc(Cl)c(Cl)c3)CC(=O)N21 (stereo unspecified) | inconclusive: 17.8 µM [inhibitor, partial curve, poor fit] |  |

| SMILES | Potency | max response, negative = inhibition |
| --- | --- | --- |
| O=C1COc2ccc(C(=O)CSc3ccc(Br)cc3)cc2N1 | inconclusive: 89.1 µM [inhibitor, partial curve] |  |
| O=C(NC(=S)NC1CCCCC1)c1ccc(Cl)cc1 | inconclusive: 89.1 µM [inhibitor, single point] |  |
| Cc1ccccc1-c1cc(C(=O)NCc2cccc(Br)c2)nn1CC1CC(c2cccc([N+](=O)[O-])c2)=NO1 (stereo unspecified) |  | inactive: -10.7% |
| FC(F)Oc1ccc(NC(=S)Nn2cnnc2)cc1 | inconclusive: 56.2 µM [inhibitor, partial curve, poor fit] |  |
| NNC(=O)CN1C(c2ccccc2)=Nc2ccc(Br)cc2C1c1ccccc1 (stereo unspecified) | inconclusive: 89.1 µM [inhibitor, single point] |  |
| CCCC(C)NC(=O)CN1C(=O)NC2(CCc3ccccc32)C1=O (stereo unspecified) |  | inactive: 4.83% |
| CCN(C(=O)COC(=O)c1cccc(S(=O)(=O)N(C)C)c1)c1c(N)n(Cc2ccccc2)c(=O)[nH]c1=O | inconclusive: 100 µM [inhibitor, partial curve, poor fit] |  |
| COc1cccc(CN(C)C(=O)c2ccccc2Sc2ccccc2C#N)c1OC | inconclusive: 89.1 µM [inhibitor, single point] |  |
| Cc1ccc2oc(C(=O)N3CCN(c4cccc(C)n4)CC3)c(C)c2c1 | inconclusive: 70.8 µM [inhibitor, single point] |  |
| COc1cc(NC(=O)Cc2ccccc2)c(C(=O)O)cc1OC | inconclusive: 79.4 µM [inhibitor, single point] |  |
| COc1ccc(CCNC(=O)CSc2nc3[nH]ncc3c(=O)n2-c2ccc(Br)cc2)cc1OC | inconclusive: 89.1 µM [inhibitor, single point] |  |
| Cc1cccc(NC(=O)c2nc(S(C)(=O)=O)ncc2Cl)c1 | inconclusive: 20 µM [inhibitor, single point] |  |
| COc1ccc2[nH]cc(CC(N)C(=O)O)c2c1 (stereo unspecified) | inconclusive: 63.1 µM [inhibitor, single point] and inconclusive: 50.1 µM [inhibitor, partial curve, poor fit] |  |
| CNc1ccc(Br)cc(C(=O)/C=C/c2ccc3c(c2)OCO3)c1=O | active: 79.4 µM |  |
| COc1ccc(/C=C2\OC(=S)N(C)C2=O)cc1 |  | inactive: 1.9% |
| CCC[C@@H]1CC2=CC(=O)CC[C@]2(C)[C@H]2CC[C@@]3(C)[C@@H](CC[C@@]34CCC(=O)O4)[C@H]12 | inconclusive: 35.5 µM [inhibitor, partial curve] |  |
| CC(=O)Nc1ccc(C(=O)CSc2nc3ccccc3n2CC(=O)N2CCCC2)cc1 | active: 79.4 µM |  |
| O=[N+]([O-])c1cc(-c2ccc(C(=S)N3CCOCC3)o2)ccc1Cl | active: 10 µM |  |
| O=C(CN1C(=O)COc2ccc(S(=O)(=O)N3CCOCC3)cc21)NCc1ccc(F)cc1 |  | inactive: 11.7% |
| COc1ccc(Br)cc1/C=N/N1CCN(Cc2ccccc2Cl)CC1 | inconclusive: 89.1 µM [inhibitor, single point] |  |
| Cc1nn(C)c(C(=O)Nc2ccc(Br)cc2F)c1Br | inconclusive: 89.1 µM [inhibitor, single point] |  |
| O=C(c1ccco1)N1CCC2(CCCN(Cc3ccncc3)C2)CC1 | inconclusive: 79.4 µM [inhibitor, single point] |  |
